The record followed here is patent publication US20260209372A1.

Where a chain is given by its changes, count along the chain named. These are yes or no findings as the source states them, for the method shown. Some results given as binding are weak or reduced against the parent protein; the word gives no strength.

The target of assay [1] is recombinant cynomolgus CD30L protein (cynomolgus). Kind of assay: ELISA, purified cyno CD30L. Background: In an ELISA, binding on a coated surface is turned into a signal by an enzyme label.
The target in assay [2] is cynomolgus CD30L expressed on cells (cynomolgus). Nature of the assay: flow cytometry, HEK293 cells expressing cyno CD30L. A general note: A flow cytometer gives signals particle by particle.
The target is the same in assay [3]. Kind of assay: flow cytometry.

B1: Clone 1 (antibody, V domains shown)
VH: QVQLQESGPGLVKPSETLSLTCTVSGGSISGYYWSWIRQPPVKGLEWIGYIFYSGYTKYNPSLKSRVTISVDTSKNQFSLKLSSVTAADTAVYYCARDRWDFDYWGQGALVTVSS
VL: AIQMTQSPSYLSASVGDRVTIACRASQGIRNNLGWYQQKPGKAPKLLIYAESSLQSGVPSRFSGSGSGTDFTLTISSLQPEDFATYYCLQDFNYPYTFGQGTKLEIK
As to B1, the binding result in assay [1] and in assay [2] was “binds” in each case.

B2: Clone 2 (antibody, V domains shown)
VH: EVQLVESGGGLVQPGRSLRLSCAASGFNFDDYAMHWVRQAPGKGLEWVSGISWRSGNIGYAGSVKGRFTISRDNAKNSLYLQMNSLRPEDSALYYCAKDKGIGFNWNYEGFDYWGQGTLVTVSS
VL: DIQMTQSPSSLSASVGDRVTITCRASQGISNHLAWFQQKPGKAPKSLIYAASSLQSGVPSKFSGSGSGTDFTLTISSLQPEDFATYYCQQYVTYPLTFGGGTKVEIK
As to B2, the binding entry in assay [1] and in assay [2] was “binds” each time.

B3: clone 2 germlined (antibody, V domains shown)
VH: B2 VH with G62D, P88A, S91T
VL: B2 VL with K61R
For B3, the binding entry in assay [1], in assay [3] and in assay [2] was “binds” throughout.
